{"source": "patent US8815925B2", "about": "“Use of combination preparations comprising antifungal agents” (priority 2006, dated 2014)", "origin": "cited, not measured here", "test_system": "COX1/COX2", "settings": "highly-selective COX2-inhibitors with a market authorization; cited from earlier work", "note": "Some results were stated once for a whole list of compounds, not compound by compound.", "data": [{"smiles": "Cc1ccc(-c2ncc(Cl)cc2-c2ccc(S(C)(=O)=O)cc2)cn1", "note": "[Etoricoxib]", "values": [{"measurement": "COX1/COX2-ratio (IC50)", "value": "more than 100"}]}]}
